This note sets out measurements from paper PMC10361659.

Chains of the proteins cited; added tags and fusions are not shown. Residues count along the entry.
UniProt P02778, residues 22-98: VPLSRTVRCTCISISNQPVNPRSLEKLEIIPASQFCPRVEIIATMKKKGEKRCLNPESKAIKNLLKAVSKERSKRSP

Assay [1] concerns the target T1, glutathione peroxidase 3 (human (endogenous in the human SSC line)) (UniProt P22352).
T1 sequence: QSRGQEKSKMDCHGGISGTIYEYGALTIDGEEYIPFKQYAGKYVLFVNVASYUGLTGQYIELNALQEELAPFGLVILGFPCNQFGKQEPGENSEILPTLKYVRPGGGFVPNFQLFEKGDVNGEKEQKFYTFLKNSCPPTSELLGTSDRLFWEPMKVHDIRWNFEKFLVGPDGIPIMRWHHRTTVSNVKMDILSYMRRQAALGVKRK
In words: co-IP; endogenous proteins in human SSC line lysate (IP lysis buffer, Thermo Co-IP kit); IP antibody against GPx3 or CXCL10 at 4°C overnight; magnetic A/G beads 1 h at room temperature; Western blots with antibodies against GPx3 or CXCL10. (Immunoblotting shows a protein as a band on a membrane.)

The target in assay [2] is CXCL10 (human (endogenous in the human SSC line)) (UniProt P02778). Described as above.

Results are given in words; binding and its absence hold for the method and conditions named. Binding seen in cells or lysates may run through a third protein. Some results given as binding are weak or reduced against the parent protein; the word gives no strength.

Regarding CXCL10 (from UniProt P02778 22-98), the binding result in assay [1] is given as “binds”.

B1: glutathione peroxidase 3 (protein, UniProt P22352 21-226)
chain: QSRGQEKSKMDCHGGISGTIYEYGALTIDGEEYIPFKQYAGKYVLFVNVASYUGLTGQYIELNALQEELAPFGLVILGFPCNQFGKQEPGENSEILPTLKYVRPGGGFVPNFQLFEKGDVNGEKEQKFYTFLKNSCPPTSELLGTSDRLFWEPMKVHDIRWNFEKFLVGPDGIPIMRWHHRTTVSNVKMDILSYMRRQAALGVKRK
Regarding B1, the binding result in assay [2] is on record as “binds”.
